For at least one compound, name, drawing or mass did not settle the structure.
Tests used:
GBM39 cells = assay: Drug sensitivity with TTFields; assay type: cell-based, human; details: TTFields for 3 days vs. no TTFields
glioblastoma patients = details: patients on maintenance temozolomide chemotherapy; cited from earlier work

In the case of `Cn1nnc2c(C(N)=O)ncn2c1=O` [Temozolomide], the “sensitivity of cells to the drug” value (GBM39 cells) is listed as “improves the sensitivity” and the “prolongation of median survival by TTFields” value (glioblastoma patients) is listed as 5 months.
